Record: PubChem BioAssay AID1259308 (NCATS, 2017)

Screen: 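Candidate targets for better recombinant protein yield in mammalian cells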 (primary screen)
Cell system: human HEK293 embryonic kidney cells stably expressing firefly luciferase (HEK-CMV-Luc2-Hygro)
Knock-down reagent: single siRNA against human genes, 0.8 pmol siRNA per well
Time to read-out: 72 h
Read-out: 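Reporter luminescence and viable-cell signal on separate replicate plates, given as percent of non-targeting control and median/MAD z-scores, plus per-cell luciferase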
Reading the numbers: total luciferase, z-score and total luciferase, % of control: higher = more reporter protein produced; luciferase per cell, z-score: higher = more reporter output per viable cell; viable cells, % of control: higher = more viable cells
Rule for the call: 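Active when the median/MAD z-score for overall luciferase is greater than 3; a gene was taken forward for validation with new siRNAs if at least two of its three siRNAs passed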
Calls: active = raised luciferase; inactive = no rise
The deposit covers about 59,000 reagents; below is an unselected part. About 1,510 of them (2.6%) were called active. 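Calls use total luciferase alone and ignore viability, so some active siRNAs may act by altering cell number.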 The numbers tell different reagents against one gene apart.

no.	Gene	siRNA no.	total luciferase, z-score	total luciferase, % of control	luciferase per cell, z-score	viable cells, % of control	Outcome
1	GUCY2F	1	-0.532	71.3	-1.02	104	inactive
2	GUCY2F	2	-2.01	42	-1.43	68.4	inactive
3	GUCY2F	3	-0.0453	81	-0.315	98.3	inactive
4	IL4I1	1	-0.47	72.5	-0.304	87.8	inactive
5	IL4I1	2	-0.487	72.2	-0.801	99.6	inactive
6	IL4I1	3	-0.446	73	-0.48	92.6	inactive
7	EIF4A3	1	2.46	131	4.48	44.9	inactive
8	EIF4A3	2	3.95	160	4.92	49.1	active
9	EIF4A3	3	1.79	118	4.44	40.8	inactive
10	ZMYND19	1	1.76	117	0.964	101	inactive
11	ZMYND19	2	4.33	168	2.46	98.3	active
12	ZMYND19	3	-1.95	43.1	-2.25	87	inactive
13	VDAC3	1	-0.129	79.3	-0.427	99.2	inactive
14	VDAC3	2	-0.718	67.6	-1.09	101	inactive
15	VDAC3	3	-0.0176	81.5	-1	119	inactive
16	HDGF	1	-0.776	66.4	-0.515	85	inactive
17	HDGF	2	-0.0643	80.6	1.55	59.9	inactive
18	HDGF	3	-1.9	44.1	-2.52	95.8	inactive
19	ADGRF3	1	-1.37	54.7	-2.19	109	inactive
20	ADGRF3	2	1.38	109	1.33	86.2	inactive
21	ADGRF3	3	-0.145	79	0.304	81.5	inactive
22	MED7	1	-2.24	37.3	-1.19	56.9	inactive
23	MED7	2	-2.4	34.2	-1.58	58	inactive
24	MED7	3	-1.37	54.6	-0.216	64.5	inactive
25	NWD2	1	2.78	137	1.47	104	inactive
26	NWD2	2	0.118	84.2	-0.476	107	inactive
27	NWD2	3	-1.34	55.2	-1.24	85.5	inactive
28	CFHR1	1	-1.68	48.5	-0.85	67.8	inactive
29	CFHR1	2	-1.02	61.6	1.06	52	inactive
30	CFHR1	3	-0.346	75	-0.63	98.9	inactive
31	CHEK1	1	-0.144	79	2.37	47.3	inactive
32	CHEK1	2	-1.18	58.4	1.91	39.5	inactive
33	CHEK1	3	-0.968	62.6	1.79	43.7	inactive
34	ZNF516	1	-1.88	44.6	-1.56	75.2	inactive
35	ZNF516	2	-0.797	66	-1.39	106	inactive
36	ZNF516	3	1.11	104	1.02	88.8	inactive
37	SNTN	1	-0.874	64.5	-0.503	82.3	inactive
38	SNTN	2	-0.473	72.5	-0.238	86.2	inactive
39	SNTN	3	0.795	97.7	0.532	94.9	inactive

Records listed so far with an active call:
Gene	siRNA no.	total luciferase, z-score	total luciferase, % of control	luciferase per cell, z-score	viable cells, % of control	Outcome
EIF4A3	2	3.95	160	4.92	49.1	active
ZMYND19	2	4.33	168	2.46	98.3	active
